Reference: PubChem BioAssay AID602196 (INSERM, 2012)

- Test: 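Genes whose knock-down alters cisplatin killing of lung cancer cells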
- Cells: human A549 lung cancer cells
- Reagent: siRNA pair against human genes
- Timing: 48 h transfection before cisplatin; time from cisplatin to read-out not stated
- Challenge: cisplatin at a dose killing half of control-siRNA cells; exact dose and duration not given
- Measured: 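Shift in cisplatin death relative to control siRNA, from -50 (all cells die) to +50 (no cells die); siRNAs harmful on their own scored 0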
- Reading the numbers: two-siRNA summed score (-2 to +2): higher = both siRNAs protect from cisplatin killing; -2 means both sensitise
- Rule for the call: 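Each siRNA scores 0 if harmful alone by LDH or WST-1, otherwise +1 if it reduces and -1 if it increases cisplatin killing; a gene is active when both siRNAs agree (sum +2 or -2)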
- Calls: active = both siRNAs shift cisplatin killing the same way; inactive = no consistent shift, or siRNA harmful alone
Shown is a random part of about 23,000 reagents tested. Over the whole deposit, 455 (2%) are marked active. 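Active includes both protection and sensitisation; some change values fall well beyond the stated -50 to +50 range.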 A number with no mark means an inactive call. Reagents against one gene are numbered here. Not all columns of the deposit are shown. No sequences are given here. The record does not give: the amount of reagent.

RPS26 (ribosomal protein S26) #1 showed two-siRNA summed score (-2 to +2) = 0.
After knock-down of RPS26 (ribosomal protein S26) #2, the record shows two-siRNA summed score (-2 to +2) = 0.
After knock-down of IQCF3 (IQ motif containing F3), the screen gave two-siRNA summed score (-2 to +2) = 1.
LINC00964 (long independently transcribed non-coding RNA 964) gave two-siRNA summed score (-2 to +2) = 0.
Knock-down of TRIM46 (tripartite motif containing 46) gave: two-siRNA summed score (-2 to +2) = 0.
FITM1 (fat storage inducing transmembrane protein 1) gave two-siRNA summed score (-2 to +2) = 0.
Silencing of ELK4 (ETS transcription factor ELK4) gave: two-siRNA summed score (-2 to +2) = 0.
TMEM44 (transmembrane protein 44) gave two-siRNA summed score (-2 to +2) = 0.
Depletion of LOC441075 resulted in: two-siRNA summed score (-2 to +2) = 1.
With knock-down of SLC25A36, the screen gave two-siRNA summed score (-2 to +2) = -1.
With knock-down of ACO1 (aconitase 1), the screen gave two-siRNA summed score (-2 to +2) = 0.
For TSHB (thyroid stimulating hormone subunit beta) the deposit lists two-siRNA summed score (-2 to +2) = 1.
Against NUBPL (NUBP iron-sulfur cluster assembly factor, mitochondrial) the deposit lists two-siRNA summed score (-2 to +2) = -1.
For LOC254897 the deposit lists two-siRNA summed score (-2 to +2) = 0.
CEP57L1 (centrosomal protein 57 like 1) scored two-siRNA summed score (-2 to +2) = 0.
With knock-down of LOC442709, the record shows two-siRNA summed score (-2 to +2) = 0.
Silencing of INTS5 (integrator complex subunit 5) resulted in: two-siRNA summed score (-2 to +2) = 1.
Depletion of PIK3CA resulted in: two-siRNA summed score (-2 to +2) = 0.
UMOD (uromodulin) showed two-siRNA summed score (-2 to +2) = 0.

Records above whose gene name starts with I or i (2):
IQCF3 (IQ motif containing F3) | two-siRNA summed score (-2 to +2) = 1
INTS5 (integrator complex subunit 5) | two-siRNA summed score (-2 to +2) = 1

The results go on:
With knock-down of ATG4A (autophagy related 4A cysteine peptidase), the screen gave two-siRNA summed score (-2 to +2) = 0.
After knock-down of KYAT3 (kynurenine aminotransferase 3) the results were two-siRNA summed score (-2 to +2) = 1.
With knock-down of BCAP29 (B cell receptor associated protein 29), the screen gave two-siRNA summed score (-2 to +2) = 0.
After knock-down of XPA (XPA, DNA damage recognition and repair factor), the screen gave two-siRNA summed score (-2 to +2) = 0.
Against PAPPA (pappalysin 1), the entry reads two-siRNA summed score (-2 to +2) = 0.
For ARHGEF2 (Rho/Rac guanine nucleotide exchange factor 2) the deposit lists two-siRNA summed score (-2 to +2) = 0.
Against ECRG4 (ECRG4 augurin precursor), the entry reads two-siRNA summed score (-2 to +2) = 0.
ANTXR2 (ANTXR cell adhesion molecule 2) gave two-siRNA summed score (-2 to +2) = 1.
OGA (O-GlcNAcase) gave two-siRNA summed score (-2 to +2) = 0.
Silencing of BRD2 (bromodomain containing 2) came out at: two-siRNA summed score (-2 to +2) = -1.
With knock-down of TOX2 (TOX high mobility group box family member 2), the screen gave two-siRNA summed score (-2 to +2) = 0.
Against GALNT2 (polypeptide N-acetylgalactosaminyltransferase 2) the deposit lists two-siRNA summed score (-2 to +2) = -1.
